Data on one compound can be found in patent US20040156854A1, “Methods for the identification, assessment, and treatment of patients with proteasome inhibition therapy” (priority 2002, published 2004).

The format of this data set is in vivo, human. Conditions: 1.3 mg/m2 twice weekly; of the 78 patients. Here is the method: A multicenter, open-label, non-randomized Phase 2 trial was conducted, wherein enrolled were patients with relapsed myeloma that was refractory to therapy. Patients were treated with 1.3 mg of bortezomib per square meter of body surface area, twice weekly for two weeks, followed by one week without treatment, for up to eight cycles (24 weeks).
Statistical analysis focused on the need to estimate response rates within specified limits of accuracy in order to determine if either of the two dose levels 1.0 or 1.3 mg/m^2/dose alone or in combination with dexamethasone are sufficiently efficacious to warrant further clinical study. This study was noncomparative in nature; therefore efficacy comparisons between the two doses of bortezomib were not performed. In addition, this study provided safety data that helped to characterize the potential toxicity of treatment at the two evaluated dose levels for up to eight cycles of therapy.
Over 80% of the 78 patients completed 2 or more cycles of treatment, 62% completed 4 or more cycles, and 27% completed 8 cycles.

For the compound `CC(C)C[C@H](NC(=O)[C@H](Cc1ccccc1)NC(=O)c1cnccn1)B(O)O` [bortezomib, N-pyrazinecarbonyl-L-phenylalanine-L-leucineboronic acid], the “patients who completed 2 or more cycles of treatment” value is given as “Over 80%”, the “patients who completed 4 or more cycles” value is on record as 62% and the “patients who completed 8 cycles” value is on record as 27%.
